These are yes or no findings as the source states them, for the method shown. Some results given as binding are weak or reduced against the parent protein; the word gives no strength.
Target: GST-MDM2 (human) (UniProt Q00987)
Assay: pull-down; GST or GST-MDM2 held by GST pull-down, incubated with 50 ng of recombinant spastin proteins or fragment in 50 mM Tris-HCl, pH 7.5, 150 nM NaCl (so in the source); bound spastin detected by WB; both purified

By UniProt entry, the sequences of proteins in these tests, tags left out.
UniProt Q00987: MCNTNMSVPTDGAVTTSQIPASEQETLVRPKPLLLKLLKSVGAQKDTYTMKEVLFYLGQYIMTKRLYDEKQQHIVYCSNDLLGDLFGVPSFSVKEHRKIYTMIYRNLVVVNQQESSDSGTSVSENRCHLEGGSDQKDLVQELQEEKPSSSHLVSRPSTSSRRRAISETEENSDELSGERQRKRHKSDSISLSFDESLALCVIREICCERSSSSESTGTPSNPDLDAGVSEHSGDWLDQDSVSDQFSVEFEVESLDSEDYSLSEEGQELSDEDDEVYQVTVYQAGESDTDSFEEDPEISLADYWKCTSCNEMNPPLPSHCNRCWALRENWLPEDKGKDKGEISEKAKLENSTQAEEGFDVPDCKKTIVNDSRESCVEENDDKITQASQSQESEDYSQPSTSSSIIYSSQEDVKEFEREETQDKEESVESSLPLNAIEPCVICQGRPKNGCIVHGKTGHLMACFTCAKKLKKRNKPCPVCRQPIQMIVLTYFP

B1: spastin recombinant fragment containing the MIT domain (79-298 aa) (domain or fragment, UniProt Q9UBP0 79-298)
chain: CQRFSRALMAAKRSSGAAPAPASASAPAPVPGGEAERVRVFHKQAFEYISIALRIDEDEKAGQKEQAVEWYKKGIEELEKGIAVIVTGQGEQCERARRLQAKMMTNLVMAKDRLQLLEKMQPVLPFSKSQTDVYNDSTNLACRNGHLQSESGAVPKRKDPLTHTSNSLPRSKTVMKTGSAGLSGHHRAPSYSGLSMVSGVKQGSGPAPTTHKGTPKTNRT
- binding: binds
